Values from PubChem BioAssay AID1259425 (University of Nebraska Medical Center, 2018)

Purpose: 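Find knockdowns that reproduce the gene expression pattern seen when KSR1 is lost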 (primary screen)
System: HCT116 human colon cancer cells
Reagent: siRNA pool against human genes, 50 nM siRNA
Measured: 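mRNA of six signature genes measured together by branched-DNA assay after 50 nM siRNA pool, blank removed, divided by geometric mean of two housekeeping genes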
Scale: BNIP3L mRNA: higher = more BNIP3L transcript after knockdown
The deposit covers about 14,000 reagents; below is an unselected part. A reagent listed more than once was tested more than once; the source does not tell the runs apart. Not all columns of the deposit are shown. Not stated in the record: the time to read-out.

Target gene	BNIP3L mRNA, set 1
AFAP1L2	0.153
HSD17B11	0.49
SDK2	0.121
NBEAL1	0.0835
CYP3A7	0.091
PSMA5	0.545
STRC	0.0853
ZNF516	0.101
ZNF516	0.114
ZNF516	0.122
SH3TC1	0.159
ABHD17B	0.249
ETS1	0.161
CTSS	0.131
ADCY7	0.186
RBM42	0.121

Copied from above (3 entries):
Target gene	BNIP3L mRNA, set 1
NBEAL1	0.0835
CYP3A7	0.091
PSMA5	0.545

Further reagents follow:
Target gene	BNIP3L mRNA, set 1
DYRK1A	0.109
SHMT2	0.115
SERPINE1	0.048
ACOT13	0.0901
PTK7	0.104
BLZF1	0.0972
DNAI7	0.251
HPSE	0.104
ETV6	0.23
NUP214	0.264
GFOD2	0.0349
S1PR1	0.168
PDHX	0.173
MRPL15	0.147
GABRB1	0.0598
TUBB6	0.129
NIPSNAP3A	0.063
APC	0.178
CCNF	0.146
PENK	0.0813
NAE1	0.108
EPC1	0.105
TTC9	0.0681
C1R	0.131
CALM3	0.124
FAM90A1	0.0764
FSHB	0.115
SP3	0.0579
CD248	0.191
ATP1B3	0.112
FOXRED1	0.139
ZNF90	0.149
DEFA4	0.265
MRPL19	0.12
